# Data published in the supplement of paper PMC10849652.
# The chains behind the UniProt entries cited, without tags or fusion partners. Where a name states a change or a piece, a line headed by the entry shows the natural chain unless it says otherwise.
# UniProt Q8WVV9: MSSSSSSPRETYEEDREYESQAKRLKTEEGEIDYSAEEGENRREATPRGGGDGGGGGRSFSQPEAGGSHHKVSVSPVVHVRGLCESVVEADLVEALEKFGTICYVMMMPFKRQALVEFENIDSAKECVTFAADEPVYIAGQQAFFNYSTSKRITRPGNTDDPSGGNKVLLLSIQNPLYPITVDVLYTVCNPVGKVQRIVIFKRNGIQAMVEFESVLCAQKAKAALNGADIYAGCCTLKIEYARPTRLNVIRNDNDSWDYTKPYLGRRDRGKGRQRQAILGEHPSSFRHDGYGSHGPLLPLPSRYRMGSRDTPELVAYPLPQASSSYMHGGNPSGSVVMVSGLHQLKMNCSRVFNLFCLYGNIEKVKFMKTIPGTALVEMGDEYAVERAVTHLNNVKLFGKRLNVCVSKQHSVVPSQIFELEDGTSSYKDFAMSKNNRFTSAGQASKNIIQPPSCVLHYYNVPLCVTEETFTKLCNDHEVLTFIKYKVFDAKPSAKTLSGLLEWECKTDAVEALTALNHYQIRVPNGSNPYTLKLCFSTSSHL
# UniProt P34931, whole entry, looked up: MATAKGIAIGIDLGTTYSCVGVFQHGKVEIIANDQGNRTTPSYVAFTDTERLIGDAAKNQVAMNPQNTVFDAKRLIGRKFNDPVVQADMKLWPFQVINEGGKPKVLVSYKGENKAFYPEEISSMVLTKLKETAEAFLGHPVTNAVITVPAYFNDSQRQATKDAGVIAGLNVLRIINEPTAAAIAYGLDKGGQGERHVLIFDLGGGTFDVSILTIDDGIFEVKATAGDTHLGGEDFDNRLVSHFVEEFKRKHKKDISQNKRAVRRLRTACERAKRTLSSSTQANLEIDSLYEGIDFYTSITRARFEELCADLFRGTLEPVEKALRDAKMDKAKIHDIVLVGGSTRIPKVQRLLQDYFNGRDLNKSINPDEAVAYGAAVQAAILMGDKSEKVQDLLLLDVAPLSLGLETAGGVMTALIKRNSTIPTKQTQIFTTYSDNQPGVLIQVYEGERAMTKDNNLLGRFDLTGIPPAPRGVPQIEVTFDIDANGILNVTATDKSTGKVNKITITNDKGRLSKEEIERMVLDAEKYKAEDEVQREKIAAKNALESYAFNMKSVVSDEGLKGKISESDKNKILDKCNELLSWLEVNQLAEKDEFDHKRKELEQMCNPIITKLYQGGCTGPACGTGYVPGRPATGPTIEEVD
# UniProt P17096: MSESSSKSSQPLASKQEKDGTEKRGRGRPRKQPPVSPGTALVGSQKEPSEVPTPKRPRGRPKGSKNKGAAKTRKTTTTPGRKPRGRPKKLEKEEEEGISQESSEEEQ
# UniProt P04035: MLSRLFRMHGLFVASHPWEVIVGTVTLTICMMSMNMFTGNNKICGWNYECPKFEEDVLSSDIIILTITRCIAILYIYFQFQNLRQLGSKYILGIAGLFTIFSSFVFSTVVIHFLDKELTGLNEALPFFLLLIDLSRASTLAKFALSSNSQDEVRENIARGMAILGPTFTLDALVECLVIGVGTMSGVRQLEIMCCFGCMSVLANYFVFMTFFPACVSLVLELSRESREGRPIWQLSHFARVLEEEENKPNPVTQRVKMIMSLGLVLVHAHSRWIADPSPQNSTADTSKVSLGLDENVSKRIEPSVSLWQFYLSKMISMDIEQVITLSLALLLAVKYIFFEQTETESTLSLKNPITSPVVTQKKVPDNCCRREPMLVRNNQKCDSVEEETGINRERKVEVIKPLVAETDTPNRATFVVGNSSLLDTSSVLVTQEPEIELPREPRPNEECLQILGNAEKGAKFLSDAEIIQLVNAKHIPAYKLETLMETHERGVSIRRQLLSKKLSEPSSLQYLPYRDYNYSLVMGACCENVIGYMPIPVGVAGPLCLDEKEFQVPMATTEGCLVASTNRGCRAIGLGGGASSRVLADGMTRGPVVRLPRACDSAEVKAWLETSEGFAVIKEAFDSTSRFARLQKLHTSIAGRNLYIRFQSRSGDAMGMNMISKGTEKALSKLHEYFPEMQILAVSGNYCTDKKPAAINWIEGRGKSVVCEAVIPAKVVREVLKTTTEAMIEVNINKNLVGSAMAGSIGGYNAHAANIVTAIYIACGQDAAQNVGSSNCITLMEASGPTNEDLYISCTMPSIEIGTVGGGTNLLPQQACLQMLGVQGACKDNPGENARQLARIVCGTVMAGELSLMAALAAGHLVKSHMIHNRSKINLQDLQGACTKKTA
# UniProt Q00839, whole entry, looked up: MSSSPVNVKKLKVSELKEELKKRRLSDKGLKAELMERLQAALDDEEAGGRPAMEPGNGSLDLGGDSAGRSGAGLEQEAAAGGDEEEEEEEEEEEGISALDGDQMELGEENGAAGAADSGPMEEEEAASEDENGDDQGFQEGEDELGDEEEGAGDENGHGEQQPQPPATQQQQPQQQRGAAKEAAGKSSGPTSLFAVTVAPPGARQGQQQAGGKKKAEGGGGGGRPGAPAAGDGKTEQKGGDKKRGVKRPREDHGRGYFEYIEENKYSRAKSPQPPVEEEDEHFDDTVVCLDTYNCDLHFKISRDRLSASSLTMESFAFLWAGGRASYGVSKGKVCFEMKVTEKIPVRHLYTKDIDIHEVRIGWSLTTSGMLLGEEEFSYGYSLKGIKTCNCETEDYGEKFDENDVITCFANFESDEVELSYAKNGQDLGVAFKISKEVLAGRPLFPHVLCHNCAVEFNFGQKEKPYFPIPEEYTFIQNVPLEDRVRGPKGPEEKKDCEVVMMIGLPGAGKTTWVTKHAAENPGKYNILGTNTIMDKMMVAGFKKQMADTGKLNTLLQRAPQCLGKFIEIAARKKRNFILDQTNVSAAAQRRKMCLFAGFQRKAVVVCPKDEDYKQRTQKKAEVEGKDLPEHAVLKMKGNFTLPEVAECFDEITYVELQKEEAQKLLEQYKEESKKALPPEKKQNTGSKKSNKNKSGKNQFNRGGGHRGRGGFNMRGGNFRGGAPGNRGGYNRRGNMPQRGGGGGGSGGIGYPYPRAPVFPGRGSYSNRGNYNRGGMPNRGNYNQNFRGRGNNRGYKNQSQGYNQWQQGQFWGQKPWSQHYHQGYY
# UniProt Q9BX68: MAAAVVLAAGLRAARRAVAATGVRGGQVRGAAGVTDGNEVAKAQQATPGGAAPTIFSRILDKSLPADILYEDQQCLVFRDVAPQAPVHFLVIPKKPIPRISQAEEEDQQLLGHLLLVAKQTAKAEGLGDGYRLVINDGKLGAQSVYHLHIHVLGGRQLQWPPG
# UniProt Q86YM7: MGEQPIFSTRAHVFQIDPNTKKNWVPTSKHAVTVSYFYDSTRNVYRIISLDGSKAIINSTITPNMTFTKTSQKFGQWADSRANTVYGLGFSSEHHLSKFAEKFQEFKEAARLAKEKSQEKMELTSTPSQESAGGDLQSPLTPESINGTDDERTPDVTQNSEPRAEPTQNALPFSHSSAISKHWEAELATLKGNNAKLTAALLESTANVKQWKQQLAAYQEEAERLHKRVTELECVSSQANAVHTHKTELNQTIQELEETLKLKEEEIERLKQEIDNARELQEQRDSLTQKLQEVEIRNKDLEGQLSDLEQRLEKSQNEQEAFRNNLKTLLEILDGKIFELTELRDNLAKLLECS
# UniProt Q9Y547: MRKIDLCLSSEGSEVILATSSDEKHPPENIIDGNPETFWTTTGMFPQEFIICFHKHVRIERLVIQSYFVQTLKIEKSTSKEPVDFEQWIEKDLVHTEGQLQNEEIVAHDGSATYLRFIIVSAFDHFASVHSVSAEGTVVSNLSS
# UniProt Q2TB90: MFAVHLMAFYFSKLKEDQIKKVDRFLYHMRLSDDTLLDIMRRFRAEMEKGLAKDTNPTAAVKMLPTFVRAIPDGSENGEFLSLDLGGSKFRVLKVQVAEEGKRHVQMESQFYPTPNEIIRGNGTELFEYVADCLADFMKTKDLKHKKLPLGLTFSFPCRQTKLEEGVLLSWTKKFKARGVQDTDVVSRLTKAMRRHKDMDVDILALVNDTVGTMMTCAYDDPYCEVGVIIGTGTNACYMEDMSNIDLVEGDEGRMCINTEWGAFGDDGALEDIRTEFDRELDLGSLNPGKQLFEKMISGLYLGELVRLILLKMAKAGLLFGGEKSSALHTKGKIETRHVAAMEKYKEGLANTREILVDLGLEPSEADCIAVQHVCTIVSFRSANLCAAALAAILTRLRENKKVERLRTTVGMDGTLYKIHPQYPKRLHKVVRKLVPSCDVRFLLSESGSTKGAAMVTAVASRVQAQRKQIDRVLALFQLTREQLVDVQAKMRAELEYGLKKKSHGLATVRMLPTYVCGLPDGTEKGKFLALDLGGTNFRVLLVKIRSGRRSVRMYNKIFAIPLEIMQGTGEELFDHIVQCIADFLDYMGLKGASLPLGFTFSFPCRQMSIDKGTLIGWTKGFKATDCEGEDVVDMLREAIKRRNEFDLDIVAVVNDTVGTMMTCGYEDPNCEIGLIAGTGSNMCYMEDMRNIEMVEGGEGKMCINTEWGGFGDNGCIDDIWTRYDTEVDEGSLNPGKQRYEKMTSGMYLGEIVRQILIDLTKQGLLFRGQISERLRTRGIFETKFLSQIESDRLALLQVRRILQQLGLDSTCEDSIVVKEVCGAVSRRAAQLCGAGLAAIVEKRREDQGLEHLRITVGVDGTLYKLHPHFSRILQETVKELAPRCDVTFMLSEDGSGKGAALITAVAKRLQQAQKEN
# UniProt Q9NP66: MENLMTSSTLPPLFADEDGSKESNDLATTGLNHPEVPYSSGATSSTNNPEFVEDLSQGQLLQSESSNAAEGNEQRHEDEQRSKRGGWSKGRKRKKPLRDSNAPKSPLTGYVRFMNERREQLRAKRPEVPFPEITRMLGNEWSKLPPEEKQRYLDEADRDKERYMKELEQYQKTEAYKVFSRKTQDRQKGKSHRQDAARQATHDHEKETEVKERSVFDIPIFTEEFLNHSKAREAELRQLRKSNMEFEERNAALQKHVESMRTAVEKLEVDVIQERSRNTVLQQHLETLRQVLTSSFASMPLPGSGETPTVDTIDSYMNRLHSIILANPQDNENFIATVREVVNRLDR
# UniProt O15347: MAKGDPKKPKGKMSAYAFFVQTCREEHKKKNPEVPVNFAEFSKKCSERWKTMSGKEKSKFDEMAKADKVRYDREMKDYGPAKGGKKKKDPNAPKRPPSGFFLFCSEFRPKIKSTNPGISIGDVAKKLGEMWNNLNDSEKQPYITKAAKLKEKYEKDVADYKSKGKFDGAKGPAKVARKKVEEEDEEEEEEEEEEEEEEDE
# UniProt Q0VDF9: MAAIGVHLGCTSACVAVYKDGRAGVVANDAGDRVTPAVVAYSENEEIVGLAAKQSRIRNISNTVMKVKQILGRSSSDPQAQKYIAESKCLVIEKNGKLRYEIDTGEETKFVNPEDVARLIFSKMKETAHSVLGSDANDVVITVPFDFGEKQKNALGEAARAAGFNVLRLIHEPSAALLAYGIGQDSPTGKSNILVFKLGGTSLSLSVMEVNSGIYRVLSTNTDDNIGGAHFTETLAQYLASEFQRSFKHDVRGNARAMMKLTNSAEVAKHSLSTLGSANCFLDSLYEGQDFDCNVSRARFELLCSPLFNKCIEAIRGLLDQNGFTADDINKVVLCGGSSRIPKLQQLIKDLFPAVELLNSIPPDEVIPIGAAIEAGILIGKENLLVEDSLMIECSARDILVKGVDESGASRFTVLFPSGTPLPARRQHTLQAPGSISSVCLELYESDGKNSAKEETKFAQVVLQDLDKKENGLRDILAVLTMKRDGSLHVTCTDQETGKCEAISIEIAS
# UniProt P52789: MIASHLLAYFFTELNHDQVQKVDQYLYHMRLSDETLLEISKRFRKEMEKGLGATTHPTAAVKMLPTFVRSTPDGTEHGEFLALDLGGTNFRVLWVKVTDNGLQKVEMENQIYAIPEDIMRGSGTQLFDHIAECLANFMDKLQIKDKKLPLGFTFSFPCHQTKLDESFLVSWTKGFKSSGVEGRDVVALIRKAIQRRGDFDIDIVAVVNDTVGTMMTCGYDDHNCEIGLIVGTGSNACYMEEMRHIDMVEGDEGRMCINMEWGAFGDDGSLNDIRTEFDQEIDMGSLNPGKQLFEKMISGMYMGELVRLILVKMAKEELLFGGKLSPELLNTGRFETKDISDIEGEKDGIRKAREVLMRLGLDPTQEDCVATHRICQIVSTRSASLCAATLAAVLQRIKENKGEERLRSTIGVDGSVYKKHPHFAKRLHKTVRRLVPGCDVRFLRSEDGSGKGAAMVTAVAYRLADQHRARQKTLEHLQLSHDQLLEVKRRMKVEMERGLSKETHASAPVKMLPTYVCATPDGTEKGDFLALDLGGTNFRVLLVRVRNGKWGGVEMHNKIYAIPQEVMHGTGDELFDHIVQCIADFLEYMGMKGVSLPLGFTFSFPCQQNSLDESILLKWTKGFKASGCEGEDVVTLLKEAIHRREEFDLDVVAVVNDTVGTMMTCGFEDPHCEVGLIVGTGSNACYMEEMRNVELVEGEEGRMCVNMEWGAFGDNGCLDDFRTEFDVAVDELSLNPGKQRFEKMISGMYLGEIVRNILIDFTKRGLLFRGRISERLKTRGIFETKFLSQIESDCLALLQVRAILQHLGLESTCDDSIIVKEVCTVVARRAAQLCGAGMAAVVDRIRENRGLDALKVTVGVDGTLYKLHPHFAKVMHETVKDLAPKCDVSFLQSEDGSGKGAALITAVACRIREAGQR
# The other results are listed elsewhere or left out.
# Compound: CS(=O)(=O)N1CCN(Cc2cc3nc(-c4cccc5[nH]ncc45)nc(N4CCOCC4)c3s2)CC1 [pictilisib]
# Assay: log2 fold change, soluble protein after heating vs DMSO (PISA); higher = thermal stabilisation; K562 cells, 10 uM, 30 min; active = over 0.2 and 3.5 SD of the protein, either way, in both replicates (recomputed)
# Summary of the method: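 For each measurement, 10 μM compound was applied for 30 min to K562 cells at 2×10^6 cells/mL. Aliquots were heated for 3 min across 48°C-58°C, pooled, and extracted in PBS with 0.5% NP-40 at 4°C; the supernatant after 21,000xg for 90 min was soluble protein. This was quantified by TMTpro 16plex LC-MS/MS with channel sums equalised, and thermal stability was reported relative to control samples from duplicates, on a log2 fold-change scale.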
row,Target,log2 fold change
1,HNRNPLL (UniProt Q8WVV9),inactive: 0.028
2,HYOU1 (UniProt Q9Y4L1),inactive: -0.046
3,HSPA1L (UniProt P34931),inactive: -0.033
4,HSP90AB1 (UniProt P08238),inactive: -0.035
5,HMGA1 (UniProt P17096),inactive: -0.27
6,HMGCR isoform 3 (UniProt P04035),inactive: -0.13
7,HSPH1 (UniProt Q92598),inactive: -0.009
8,HIST2H2BF isoform 2 (UniProt Q5QNW6),inactive: -0.137
9,HNRNPU (UniProt Q00839),inactive: 0.052
10,HINT2 (UniProt Q9BX68),inactive: -0.017
11,HOMER1 (UniProt Q86YM7),inactive: -0.001
12,HSPB11 (UniProt Q9Y547),inactive: 0.137
13,HKDC1 (UniProt Q2TB90),inactive: -0.05
14,HUWE1 (UniProt Q7Z6Z7),inactive: -0.031
15,HMG20A (UniProt Q9NP66),inactive: 0.145
16,HMGB3 (UniProt O15347),inactive: -0.044
17,HSPA14 (UniProt Q0VDF9),inactive: -0.033
18,IARS (UniProt P41252),inactive: -0.088
19,HTATIP2 isoform 3 (UniProt Q9BUP3),inactive: 0.137
20,HNRNPK isoform 2 (UniProt P61978),inactive: 0.004
21,HS2ST1 (UniProt Q7LGA3),inactive: 0.029
22,HK2 (UniProt P52789),active: -0.353

# An excerpt of these results, with bars between the fields:
row | Target | log2 fold change
2 | HYOU1 (UniProt Q9Y4L1) | inactive: -0.046
3 | HSPA1L (UniProt P34931) | inactive: -0.033
